In PMC8842676:
No constants are given. Whether binding was seen depends on the method and setting. Binding seen in cells or lysates may run through a third protein. Binding can be weak; no strength is given. Sequences can lack the tags named with a protein.

Chains of the proteins cited; added tags and fusions are not shown. Lines headed by an entry give the natural chain unless they say otherwise; changes in a name come on top.
UniProt Q08397: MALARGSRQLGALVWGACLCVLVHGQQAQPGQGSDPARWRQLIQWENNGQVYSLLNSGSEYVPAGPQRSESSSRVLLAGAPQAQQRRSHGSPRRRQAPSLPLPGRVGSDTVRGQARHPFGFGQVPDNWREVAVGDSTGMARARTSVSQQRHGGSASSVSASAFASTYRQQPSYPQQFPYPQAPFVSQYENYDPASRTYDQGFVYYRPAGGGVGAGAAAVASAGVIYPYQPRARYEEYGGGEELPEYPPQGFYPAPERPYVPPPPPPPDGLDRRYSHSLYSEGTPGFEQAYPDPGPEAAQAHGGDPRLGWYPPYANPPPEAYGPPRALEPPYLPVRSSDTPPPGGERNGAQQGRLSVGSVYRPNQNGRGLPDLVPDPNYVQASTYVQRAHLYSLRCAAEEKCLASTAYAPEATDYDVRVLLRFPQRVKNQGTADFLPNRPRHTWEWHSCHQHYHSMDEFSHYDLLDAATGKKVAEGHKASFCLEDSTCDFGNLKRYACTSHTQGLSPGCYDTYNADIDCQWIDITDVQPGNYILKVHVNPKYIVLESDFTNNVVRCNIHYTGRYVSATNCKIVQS

Target: 3xFLAG-Loxl1 (lysyl oxidase-like 1) (UniProt Q08397)
Assay: co-IP; FLAG-M2 affinity agarose on cell lysates in RIPA buffer, 0.5 mg/mL lysate, 3 hours at 4°C, eluted with 3xFLAG peptides; with or without co-expressed lamR

binding: binds
B1: EGFP-SNAI3 (Snail-like transcription factor) (protein, UniProt Q3KNW1 1-292)
chain: MPRSFLVKTHSSHRVPNYRRLETQREINGACSACGGLVVPLLPRDKEAPSVPGDLPQPWDRSSAVACISLPLLPRIEEALGASGLDALEVSEVDPRASRAAIVPLKDSLNHLNLPPLLVLPTRWSPTLGPDRHGAPEKLLGAERMPRAPGGFECFHCHKPYHTLAGLARHRQLHCHLQVGRVFTCKYCDKEYTSLGALKMHIRTHTLPCTCKICGKAFSRPWLLQGHVRTHTGEKPYACSHCSRAFADRSNLRAHLQTHSDAKKYRCRRCTKTFSRMSLLARHEESGCCPGP
